Consider 2 molecules from paper PMC6977684.

Chains of the proteins cited; added tags and fusions are not shown.
UniProt P15144: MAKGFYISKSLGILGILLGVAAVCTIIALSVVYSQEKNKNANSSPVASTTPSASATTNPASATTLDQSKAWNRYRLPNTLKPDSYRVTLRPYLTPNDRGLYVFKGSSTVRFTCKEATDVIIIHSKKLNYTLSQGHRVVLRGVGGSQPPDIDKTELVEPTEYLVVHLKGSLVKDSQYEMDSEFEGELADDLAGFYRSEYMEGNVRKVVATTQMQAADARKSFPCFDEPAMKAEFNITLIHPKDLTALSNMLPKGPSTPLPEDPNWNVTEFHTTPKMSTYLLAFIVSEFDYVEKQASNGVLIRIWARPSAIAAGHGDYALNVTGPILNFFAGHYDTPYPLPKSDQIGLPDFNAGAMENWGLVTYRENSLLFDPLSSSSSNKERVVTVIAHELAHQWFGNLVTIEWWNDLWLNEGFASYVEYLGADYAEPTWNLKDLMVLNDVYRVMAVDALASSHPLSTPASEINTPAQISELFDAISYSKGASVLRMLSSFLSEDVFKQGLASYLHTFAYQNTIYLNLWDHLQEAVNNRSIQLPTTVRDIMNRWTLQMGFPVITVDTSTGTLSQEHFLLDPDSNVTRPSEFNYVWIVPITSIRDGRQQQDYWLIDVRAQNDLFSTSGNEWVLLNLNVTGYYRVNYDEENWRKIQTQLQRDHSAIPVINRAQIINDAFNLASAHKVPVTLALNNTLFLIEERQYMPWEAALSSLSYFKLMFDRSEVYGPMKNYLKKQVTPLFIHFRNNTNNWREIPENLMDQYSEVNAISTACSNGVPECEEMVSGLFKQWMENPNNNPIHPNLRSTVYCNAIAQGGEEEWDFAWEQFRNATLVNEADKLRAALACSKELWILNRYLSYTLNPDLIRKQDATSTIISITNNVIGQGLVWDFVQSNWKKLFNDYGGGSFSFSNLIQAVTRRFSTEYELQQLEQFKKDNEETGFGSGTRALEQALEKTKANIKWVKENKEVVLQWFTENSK
UniProt P27986: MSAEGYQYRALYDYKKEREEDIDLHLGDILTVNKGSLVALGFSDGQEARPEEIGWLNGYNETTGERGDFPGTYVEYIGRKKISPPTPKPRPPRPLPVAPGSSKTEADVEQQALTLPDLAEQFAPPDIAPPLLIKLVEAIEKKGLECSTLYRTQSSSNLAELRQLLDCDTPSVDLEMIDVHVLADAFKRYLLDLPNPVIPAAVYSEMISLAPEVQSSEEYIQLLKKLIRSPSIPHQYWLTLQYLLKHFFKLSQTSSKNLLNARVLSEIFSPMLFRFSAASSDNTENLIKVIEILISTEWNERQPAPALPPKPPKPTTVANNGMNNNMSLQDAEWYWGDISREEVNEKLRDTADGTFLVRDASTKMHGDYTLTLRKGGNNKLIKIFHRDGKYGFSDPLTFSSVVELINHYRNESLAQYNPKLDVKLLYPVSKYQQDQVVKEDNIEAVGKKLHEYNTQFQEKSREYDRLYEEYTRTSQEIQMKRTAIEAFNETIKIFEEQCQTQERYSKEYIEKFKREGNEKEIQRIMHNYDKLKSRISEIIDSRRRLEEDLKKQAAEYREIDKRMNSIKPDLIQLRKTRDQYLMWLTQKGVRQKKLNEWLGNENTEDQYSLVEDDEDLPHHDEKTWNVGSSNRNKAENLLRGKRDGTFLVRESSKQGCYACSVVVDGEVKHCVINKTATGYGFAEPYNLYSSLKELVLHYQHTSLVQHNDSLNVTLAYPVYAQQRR

Assay [1] deals with T1, Flag-EMP3 (in MKN-45/DDP cells) (human) (UniProt P54852).
T1 sequence: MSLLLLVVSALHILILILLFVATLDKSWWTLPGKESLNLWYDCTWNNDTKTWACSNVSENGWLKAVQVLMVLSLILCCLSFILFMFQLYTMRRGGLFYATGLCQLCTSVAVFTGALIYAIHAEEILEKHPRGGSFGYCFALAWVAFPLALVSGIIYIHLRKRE
In words: co-IP; MKN-45/DDP cells, anti-Flag or anti-HA antibodies; also in Ubenimex-treated MKN-45/DDP cells (attenuated).

In assay [2] the target is CD13 (human (endogenous in MKN-45/DDP)) (UniProt P15144). In words: co-IP; endogenous CD13 and EMP3 in MKN-45/DDP cells, precipitated with anti-CD13 or anti-EMP3; also in Ubenimex-treated MKN-45/DDP cells (association reduced).

No constants are given. Whether binding was seen depends on the method and setting. Binding seen in cells or lysates may run through a third protein. Some binding calls cover weakened binding; strength is not graded here. For some assays here: Sequences can lack the tags named with a protein.

Take HA-P85 (from UniProt P27986 1-724): the binding result in assay [1] is on record as “binds”.

B1: Epithelial membrane protein 3 (protein, UniProt P54852 1-163)
chain: T1 sequence
B1: the binding entry in assay [2] was “binds”.
